Measured values from PMC4432633.
No constants are given. Whether binding was seen depends on the method and setting. A result given as binding can be weak or reduced; the word gives no strength. For some assays here: In cells and extracts the contact can be indirect.

What was measured:
[1] = target: MopJ-GFP (Caulobacter crescentus NA1000); assay: co-IP; GFP-Trap_A beads (ChromoTek) incubated with cleared lysates of C. crescentus grown with xylose; 10 mM Tris-HCl pH 7.5, 150 mM NaCl, 0.5 mM EDTA, lysis with 0.5% NP40; 1 h or overnight at 4 °C; immunoblot with antibodies to DivJ and GFP
[2] = target: MopJ-TAP (Caulobacter crescentus NA1000); assay: tandem affinity purification; MopJ-TAP from lysate of WT cells (0.5% n-dodecyl-β-D-maltoside), IgG Sepharose, TEV release, calmodulin beads, EGTA elution; eluates immunoblotted with polyclonal antibodies to DivJ

B1: DivJ (enzyme, UniProt Q03228 1-597)
chain: MILPTALKSRLALEFETLPDPFRRPAARAAGLDPAHAWRLGWLAAVCLAAAAALFTADSGGWPVWAALGAGALPALVSLIFTREDERTQSWLLVLWAVGGSLAAVLTGGVGGAMAAWCLAPVAAASTQDQPKRLAEGAALALIGACVAALTQLSGLAPAAPTGPLAFVLGFLALVTTGLGLAAGLLIGRRRQGARDDRYASEIIGLETLLDGLPHLAIAVRGQGQVTAVRGAAPPGVTRADLVNRGLTGAAAPGDRQRLTAAIAQAHREGSASLTFNPALGVERVVALDMHRVAPNQLVGVLRDITVERHREHALDQARIDAEALAAGRARFLANMSHELRTPLNAIMGFSDIMRARMFGPLSDRYAEYAELIHESGGHLLDLINDVLDMSKIEAERFELQRGVFDAREAVQAAMRLLRVQSDTAGVQLRGVLPPGELEVDADRRALKQIVLNLVSNALKFTPRGGQVTVTAHGYDGVLEIVVADTGVGISPEDLERLGRPYEQAGGAEQRARGTGLGLSLVRAFAQLHGGEMVIESRLGAGTTVSVRLPVLLAPMVAATPTPPAAPEAPSAPEPAPTVEEPPPASLGDNVIAFAPR
binding [1]: binds | binding [2]: binds
